Calls as published in the ROBIN set (doi:10.1002/anie.202211358).

Targets, with sequences 5′ to 3′:
SAM-II: SAM-II riboswitch RNA pseudoknot, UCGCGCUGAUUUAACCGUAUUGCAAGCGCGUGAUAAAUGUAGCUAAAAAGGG. About 21,000 compounds screened, about 200 hits.
PreQ1: PreQ1 riboswitch RNA pseudoknot, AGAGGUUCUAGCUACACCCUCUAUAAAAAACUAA. From B. subtilis. About 24,000 compounds screened, about 170 hits.
TPP: TPP riboswitch RNA three-way junction, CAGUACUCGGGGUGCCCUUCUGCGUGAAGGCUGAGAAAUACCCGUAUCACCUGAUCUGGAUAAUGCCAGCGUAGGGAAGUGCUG. About 24,000 compounds screened, about 160 hits.

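Compounds were printed on reactive glass slides in duplicate spots, a dye-labelled oligonucleotide was laid over them, and the fluorescence left after washing was read. The data file lists only calls. An earlier report of the laboratory on the PreQ1, TPP and SAM-II riboswitches (doi:10.1038/s41467-019-09493-3) used 1 µM RNA for 2 h and required a mean Z-score above 3 (spot signal-to-noise against the whole library), a score well above that on a control array, and duplicate spots agreeing (coefficient of variation under 100); it then also set aside compounds that hit other targets, which this list keeps. The cut-offs behind this list may differ. These are primary screening calls, not affinities; a compound without a hit may have attached poorly or may still bind in solution.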 “hit” means called a hit, “no hit” means screened and not called a hit. The compounds are a random part of those screened. A target missing from an entry has no call listed here.

COc1ccc(-c2cnc(NCc3ccccc3F)n2C)cc1 was scored SAM-II: no hit; PreQ1: no hit; TPP: no hit. For Cc1nc(-c2cccc(-n3ccnc3-c3cc4n(n3)CCNC4)c2)cs1 the calls were SAM-II: no hit; PreQ1: no hit; TPP: no hit. With N#Cc1c(-c2cccn2-c2ccncc2)cc(-c2ccc[nH]2)nc1N the screen gave SAM-II: no hit; PreQ1: no hit; TPP: no hit. CCC1(c2ccc(N)cc2)CCC(=O)NC1=O (centres unmarked) was scored SAM-II: no hit; PreQ1: no hit; TPP: no hit.

Calls for Cc1cc(CC(C)NCCC(=O)Nc2nccs2)[nH]n1 (centres unmarked) are SAM-II: no hit; PreQ1: no hit; TPP: no hit. Calls for COc1ccc(Br)cc1Cn1nnc(C(=O)Nc2ccc(C)c(C)c2)c1N are SAM-II: no hit; PreQ1: no hit; TPP: no hit. With Cc1nn(C)c(C)c1CCC(=O)N1CCOc2ccc(CO)cc2C1 the screen gave SAM-II: no hit; PreQ1: no hit; TPP: no hit. Calls for COC(=O)[C@H](c1ccccc1Cl)N1CCc2sccc2C1 are SAM-II: no hit; PreQ1: no hit; TPP: no hit.

COCc1cc(C)nc2sc(C3=NC(C)(C)Cc4ccccc43)c(N)c12 was scored SAM-II: no hit; PreQ1: no hit; TPP: no hit. Calls for COC(=O)Nc1nc2ccc(C(=O)c3ccccc3)cc2[nH]1 are SAM-II: no hit; PreQ1: no hit; TPP: no hit. With Cc1cc(C)nc(CCNC(=O)c2cn(CCN3CCNCC3)nn2)n1 the screen gave SAM-II: no hit; PreQ1: no hit; TPP: no hit. CC(=O)c1ccc(Nc2cc(C)nc3nc(-c4ccccc4)nn23)cc1 was scored PreQ1: no hit; TPP: no hit.

For NCCS(=O)(=O)N1CCNCC1 the calls were SAM-II: no hit; PreQ1: no hit; TPP: no hit. With C[Se]CCC(N)C(=O)O (centres unmarked) the screen gave SAM-II: no hit; PreQ1: no hit; TPP: no hit. Calls for O=C(NCCN1CCC(O)CC1)Nc1ccc(C=Cc2ccccn2)cc1 are SAM-II: no hit; PreQ1: no hit; TPP: no hit. Calls for C=CCc1ccccc1OCc1nnc(N)s1 are SAM-II: no hit; PreQ1: no hit; TPP: no hit.

For CNC1=C(C(N)=O)S(=O)(=O)c2ccccc21 the calls were PreQ1: no hit; TPP: no hit. O=S(=O)(CC(F)(F)F)N1CCC2(CCNCC2)C1 was scored SAM-II: no hit; PreQ1: no hit; TPP: no hit. CC(Cn1ccnc1-c1cn(C2CCNCC2)nn1)Oc1cccnc1 (centres unmarked) was scored SAM-II: no hit; PreQ1: no hit; TPP: no hit. Calls for CCN(CC)c1ccc(Nc2nc(-c3cccnc3)cs2)cc1 are SAM-II: no hit; PreQ1: no hit; TPP: no hit.

Calls for CCOC(=O)c1cnc2ccc(C(=O)OC)cc2c1NCc1ccco1 are SAM-II: no hit; PreQ1: no hit; TPP: no hit. Oc1ccccc1-c1nc2cnccn2c1Nc1ccc(F)cc1 was scored PreQ1: no hit; TPP: no hit. Calls for C#C[C@]1(O)CC[C@@H]2[C@@H]3CCc4cc(O)ccc4[C@H]3CC[C@@]21C are SAM-II: no hit; PreQ1: no hit; TPP: no hit. Calls for CCCCNc1nc(CC)c2c(c1C#N)CCCC2 are SAM-II: no hit; PreQ1: no hit; TPP: no hit.

With CCOC(=O)c1cnc2c(C)cc(Cl)cc2c1Nc1ccc(C(C)=O)cc1 the screen gave SAM-II: no hit; PreQ1: no hit; TPP: no hit. CCn1c(CCNC2CCC3(CCNCC3)CC2)nc2ccccc21 was scored SAM-II: no hit; PreQ1: no hit; TPP: no hit. With O=C1CC(NCC2CCCO2)C(=O)N1c1ccc(F)cc1 (centres unmarked) the screen gave SAM-II: no hit; PreQ1: no hit; TPP: no hit. Calls for Cn1c(=N)n(CCO)c2ccccc21 are SAM-II: no hit; PreQ1: no hit; TPP: no hit.

Some entries from above, unchanged:

* Oc1ccccc1-c1nc2cnccn2c1Nc1ccc(F)cc1 : PreQ1: no hit; TPP: no hit
* COc1ccc(Br)cc1Cn1nnc(C(=O)Nc2ccc(C)c(C)c2)c1N : SAM-II: no hit; PreQ1: no hit; TPP: no hit
* CNC1=C(C(N)=O)S(=O)(=O)c2ccccc21 : PreQ1: no hit; TPP: no hit